Results deposited as PubChem BioAssay AID652243 (Drosophila RNAi Screening Center, 2013)
The screen tested about 24,000 reagents; below is a random part of those that have a named target and a result. In the full data, 246 (1%) got an active call. 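Plates not normalised; calls are printed but the firefly/Renilla ratio behind them is not deposited; fold cut for lowering reported inconsistently.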 Raw values are not corrected between plates. Names joined by + are all predicted targets of the reagent. Not stated in the record: the amount of reagent.

Aim: 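Fly regulators of androgen-dependent reporter output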 (primary screen)
Cell system: Drosophila S2R+ cells
Reagents: long dsRNA against Drosophila genes
Time to read-out: 72 h (48 h, then 24 h hormone)
Treatment: synthetic androgen R1881 at 10 nM for 24 h
Detection: 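Per-well raw luminescence of the androgen-driven firefly reporter and of the Renilla control, two replicates each, without normalisation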
Reading the numbers: firefly reporter light: higher = more light from androgen-responsive reporter; Renilla control light: higher = more constitutive control signal (cell number, transfection)
Hit rule: 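Across duplicate plates, a knock-down whose log firefly/Renilla ratio shifted a set fold down or up from the GFP/LacZ control mean was a hit; the downward cut appears as both 1.5 and 3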
Calls: active = hit: reporter lowered or raised; inactive = no hit

predicted target	amplicon	firefly reporter light, replicate 1	firefly reporter light, replicate 2	Renilla control light, replicate 1	Renilla control light, replicate 2	Call
CG1637	DRSC18865	1.52e6	6.25e5	2.85e6	8.71e5	inactive
CG1637	DRSC19748	81479	82126	5.66e5	6.15e5	inactive
CG1637	DRSC19749	2.44e5	2.46e5	2.58e6	2.24e6	inactive
CG1637	DRSC29080	3.63e5	3.10e5	1.10e6	1.38e6	inactive
CG13544	DRSC04186	2.96e5	2.25e5	1.94e6	2.05e6	inactive
CG13544	DRSC30038	4.91e5	4.24e5	1.16e6	1.04e6	inactive
Cog2 (Component of oligomeric golgi complex 2)	DRSC16987	1.83e5	1.64e5	1.97e6	2.14e6	inactive
CG3376	DRSC04362	7.27e5	7.89e5	5.57e5	8.83e5	inactive
CG3376	DRSC26489	47783	59095	67276	72878	inactive
mthl14 (methuselah-like 14)	DRSC07865	92539	1.65e5	2.70e5	3.79e5	inactive
DNAlig3 (DNA ligase 3)	DRSC15201	1.99e5	2.18e5	2.67e6	2.48e6	inactive
DNAlig3 (DNA ligase 3)	DRSC29603	5.69e5	8.08e5	1.01e6	1.01e6	inactive
CG15019	DRSC08473	1.37e5	1.80e5	2.21e6	2.28e6	inactive
CG30056	DRSC21752	4.34e5	4.78e5	4.05e5	4.67e5	inactive
Wdfy2 (WD repeat and FYVE domain containing 2)	DRSC02822	7.91e5	1.00e6	2.06e6	1.99e6	inactive
Wdfy2 (WD repeat and FYVE domain containing 2)	DRSC29755	5.02e5	3.32e5	1.74e6	1.35e6	inactive
CG31948	DRSC00740	79972	45903	6.94e5	5.24e5	inactive
Scgbeta (Sarcoglycan beta)	DRSC15854	2.99e5	2.83e5	3.34e6	3.31e6	inactive
CG33937 (retired record)	DRSC15148	1.64e5	2.10e5	3.29e6	3.02e6	inactive
CG5446	DRSC02862	2.45e5	3.43e5	1.34e6	1.27e6	inactive
mtg (mind the gap)	DRSC16256	1.03e5	1.12e5	1.69e6	1.33e6	inactive
mtg (mind the gap)	DRSC24674	8.70e5	8.34e5	9.99e5	9.40e5	inactive
CG12560	DRSC02174	2.61e5	3.00e5	1.90e6	2.17e6	inactive
CG13028	DRSC09908	3.35e5	3.18e5	3.42e6	2.66e6	inactive
da	DRSC03517	1.54e5	85826	2.14e6	9.96e5	inactive
Gr64e + Gr64d	DRSC28375	4.24e5	6.64e5	1.38e6	1.65e6	inactive
CG4781	DRSC04488	2.37e5	2.18e5	1.55e6	1.41e6	inactive
Mcm5 (Minichromosome maintenance 5)	DRSC16735	1.97e5	3.53e5	2.93e6	2.94e6	inactive
Mcm5 (Minichromosome maintenance 5)	DRSC29514	8.97e5	7.56e5	1.14e6	1.14e6	inactive
Cyt-b5 (Cytochrome b5)	DRSC07392	8.15e5	7.66e5	2.17e6	2.72e6	inactive
Nipped-A	DRSC04882					inactive
Nipped-A	DRSC04883	5.18e5	4.37e5	2.38e6	2.07e6	inactive
Nipped-A	DRSC04884	2.69e5	6.28e5	1.10e6	1.93e6	inactive
Nipped-A	DRSC07738	1.30e5	1.56e5	9.86e5	1.59e6	inactive
Nipped-A	DRSC22386	8.88e5	9.48e5	2.74e6	2.47e6	inactive
Utx (Utx histone demethylase)	DRSC02872	2.78e5	2.76e5	1.76e6	2.19e6	inactive
tos (tosca)	DRSC03624	1.40e6	5.04e5	1.76e6	1.11e6	inactive
CG2964	DRSC00554					inactive
CG2964	DRSC27524	2.74e5	1.87e5	6.15e5	7.16e5	inactive
Sse (Separase)	DRSC09746	5.27e5	4.99e5	7.04e5	9.67e5	inactive
CG34348	DRSC19425	5.33e5	4.79e5	3.22e6	2.83e6	inactive
CG34348	DRSC19644	4.67e5	4.13e5	3.17e6	2.92e6	inactive
Cpr65Ax2 + Cpr65Ax1	DRSC10341	2.06e5	2.78e5	2.42e6	3.30e6	inactive
Cpr65Ax2 + Cpr65Ax1	DRSC10344	2.32e5	1.93e5	2.53e6	2.24e6	inactive
Ote (Otefin)	DRSC07498	2.26e5	2.59e5	4.11e5	5.23e5	inactive
Hsp60A (Heat shock protein 60A)	DRSC20254	1.46e5	1.16e5	1.11e6	1.05e6	inactive
CG2694	DRSC18470	1.11e5	97852	1.06e6	6.32e5	inactive
CG10543	DRSC23102	3.93e5	3.03e5	1.65e6	1.33e6	inactive
Ugt303B2 (UDP-glycosyltransferase family 303 member B2)	DRSC14198	1.81e5	2.30e5	2.83e6	3.19e6	inactive
Ugt303B2 (UDP-glycosyltransferase family 303 member B2)	DRSC22864	3.97e5	8.62e5	1.20e6	2.04e6	inactive
CG12539	DRSC19470	2.93e5	2.27e5	2.85e6	2.54e6	inactive
CG12539	DRSC29569	2.61e5	3.43e5	5.15e5	5.15e5	inactive
CG11030	DRSC02120	45515	43777	6.18e5	5.34e5	inactive
CG11030	DRSC23703	5.63e5	8.13e5	7.76e5	8.21e5	inactive
cd (cardinal)	DRSC16157	1.97e5	1.70e5	3.28e6	2.18e6	inactive
CG16772	DRSC02516	1.48e5	1.84e5	2.03e6	2.42e6	inactive
CG16772	DRSC25947	3.31e5	3.52e5	9.84e5	8.61e5	inactive
bic (bicaudal)	DRSC07584	9.40e5	1.03e6	2.49e6	2.22e6	inactive
bic (bicaudal)	DRSC25656	1.00e6	9.18e5	1.08e6	1.24e6	inactive

Targets above whose gene name begins with M or m (5):
predicted target	amplicon	firefly reporter light, replicate 1	firefly reporter light, replicate 2	Renilla control light, replicate 1	Renilla control light, replicate 2	Call
mthl14 (methuselah-like 14)	DRSC07865	92539	1.65e5	2.70e5	3.79e5	inactive
mtg (mind the gap)	DRSC16256	1.03e5	1.12e5	1.69e6	1.33e6	inactive
mtg (mind the gap)	DRSC24674	8.70e5	8.34e5	9.99e5	9.40e5	inactive
Mcm5 (Minichromosome maintenance 5)	DRSC16735	1.97e5	3.53e5	2.93e6	2.94e6	inactive
Mcm5 (Minichromosome maintenance 5)	DRSC29514	8.97e5	7.56e5	1.14e6	1.14e6	inactive
